Source: PubChem BioAssay AID1487 (National Center for Advancing Translational Sciences (NCATS), 2009)
This is one part of the list. Shown are side measurements of this screen, not its main read-out; they come without a call. Compounds called inactive in the main read-out are mostly missing here. The note in brackets gives the kind of curve behind each potency; many fits are weak.

Assay: qHTS Assay for Modulators of Lamin A Splicing
Conditions: HeLa LMNA splicing GFP/RFP minigene ratio, 48 h
How it was run: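 S3 HeLa cells stably expressing lamin A-EGFP splicing minigene plus DsRed2, 600 cells/well, 48 h compound exposure at 37C. Laser-scanning cytometry; analysed as GFP (500-530 nm)/RFP (575-640 nm) total intensity ratio; 0.5% DMSO vehicle.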

[1] = measured here: GFP splicing reporter channel
[2] = measured here: RFP viability control channel

Structure (SMILES) | AC50 [1] | AC50 [2]
COc1ccccc1-c1cc(Nc2ccc(F)cc2)ncn1 | 22.4 µM [falling, single point] | 22.4 µM [falling, single point]
CN(c1ccccc1)S(=O)(=O)c1ccc(NC(=O)c2ccccc2)cc1 | – | 35.5 µM [rising, single point]
CC(=O)O[C@@]1(C(C)=O)CCC2C3CC(C)C4=CC(=O)CC[C@@]4(C)C3CC[C@]21C (some centres undefined) | 11.2 µM [rising, partial curve, poor fit] | 11.2 µM [rising, single point]
CC(=O)c1c(C)[nH]c(C(=O)OCC(=O)Nc2cc(Cl)ccc2[N+](=O)[O-])c1C | – | 5.01 µM [rising, single point]
Cc1cc(Oc2ccccc2F)nc(NCc2ccccc2)n1 | – | 25.1 µM [rising, single point]
COc1ccccc1-n1cnc2c(c1=O)c1nc3ccccc3nc1n2CCc1ccccc1 | – | 2 µM [falling, partial curve]
NCCCCNS(=O)(=O)c1cccc2c(Cl)cccc12 | – | 0.00447 µM [falling, full curve, poor fit]
Cc1cc2c(ncn2Cc2ccccc2)c(N)c1C | – | 6.31 µM [falling, partial curve, poor fit]
O=C(CNCc1ccc(Cl)cc1)Nc1ccc2c(c1)OCCO2 | 2.51 µM [rising, single point] | –
O=C1CC(C(=O)Nc2ccc(F)cc2)n2cnnc2N1 (centres undefined) | – | 0.158 µM [rising, full curve, poor fit]
CCOC(=O)c1c(C)[nH]c(C)c1C(=O)COC(=O)c1cc2ccccc2cc1O | – | 15.8 µM [rising, single point]
CCOc1ccccc1NC(=O)C1CCCN(S(=O)(=O)c2ccc(OC)c(C)c2)C1 (centres undefined) | 20 µM [rising, single point] | 31.6 µM [rising, single point]
COc1ccc(NC(=O)CCN2CCN(S(=O)(=O)c3ccc(C(C)C)cc3)CC2)cc1 | – | 31.6 µM [rising, single point]
Nc1ncnc2c1c(-c1ccc(Oc3ccccc3)cc1)cn2C1CCCC1 | 12.6 µM [falling, partial curve] | 12.6 µM [falling, partial curve]
CCC(=O)Oc1c(C(=O)CC)cc2c(C)cc(=O)oc2c1C | – | 2.82 µM [rising, single point]
COc1ccc(-c2nc3ccccc3nc2-c2ccccc2)cc1 | 35.5 µM [falling, single point] | 35.5 µM [falling, single point]
Brc1ccc(Oc2ncc(CN3CCN(c4ccccc4)CC3)s2)cc1 | – | 15.8 µM [rising, single point]
CCc1cccc2c(C(=O)COC(=O)/C=C/c3ccc(O)c(OC)c3)c[nH]c12 | – | 35.5 µM [rising, single point]

Structure (SMILES) | AC50 [1] | AC50 [2]
Cc1ccc(S(=O)(=O)N2CCCN(S(=O)(=O)c3ccc4ccccc4c3)CC2)cc1 | 31.6 µM [rising, single point] | 35.5 µM [rising, single point]
CN(/N=C\c1ccc(O)c(O)c1)c1nc(-c2ccccc2)cc(-c2ccccc2)n1 | 22.4 µM [falling, partial curve, poor fit] | 20 µM [falling, partial curve, poor fit]
COc1ccc(C(=O)Nc2sc(C)c(C)c2CN2CCOCC2)cc1 | 14.1 µM [rising, single point] | 15.8 µM [rising, partial curve]
COc1ccc(N2CCN(c3cc(C)c4ccccc4n3)CC2)cc1 | 11.2 µM [falling, partial curve, poor fit] | –
Cc1ccc2[nH]c(CSc3nnc(NC(=O)COc4ccccc4F)s3)cc(=O)c2c1 | 14.1 µM [falling, partial curve, poor fit] | –
COc1ccc(Sc2nnc(Cc3ccccc3)c3ccccc23)cc1 | – | 31.6 µM [falling, single point]
Cc1c(C(=O)OCCOc2ccccc2)[nH]c2c1C(=O)CCC2 | 17.8 µM [rising, partial curve] | 15.8 µM [rising, single point]
Cc1ccc(S(=O)(=O)NNC(=O)c2cccc(O)c2)cc1 | 5.62 µM [falling, full curve, poor fit] | –
CC(=O)N1CCN(CCN=CC2=C(O)CC(c3ccc(Cl)cc3)CC2=O)CC1 (centres undefined) | – | 0.00447 µM [rising, full curve, poor fit]
Cc1ccccc1NC(=O)C1C2CCC(O2)C1C(=O)O (centres undefined) | 35.5 µM [rising, single point] | 35.5 µM [rising, single point]
C=CCn1cc(C(=O)OC)c(=O)c2cc(S(=O)(=O)N3CCC(C)CC3)ccc21 | 7.94 µM [rising, single point] | 22.4 µM [rising, single point]
O=C(Nc1cccc(S(=O)(=O)N2CCCC2)c1)c1ccc2c(=O)n3c(nc2c1)CCCCC3 | 1 µM [rising, full curve] | 2.51 µM [rising, full curve]
COc1ccc(-n2cc(CNCCCn3ccnc3)c(-c3ccccc3Cl)n2)cc1 | 1.41 µM [falling, full curve, poor fit] | –
COc1ccc(N2CCN(C(=S)Nc3ccc(C)cc3)CC2)cc1 | – | 22.4 µM [falling, single point]
COc1cccc(-c2nc(SCc3cc(=O)c4cc(Cl)ccc4[nH]3)n[nH]2)c1 | 0.631 µM [rising, full curve, poor fit] | 35.5 µM [rising, partial curve, poor fit]
O=C(NCCc1ccc(Cl)cc1)c1ccc2nc(Cc3ccccc3)oc2c1 | – | 10 µM [rising, partial curve, poor fit]
CC1(C)NC(=O)N(CCCCOc2ccc3c(c2)CCC3)C1=O | 35.5 µM [rising, single point] | 35.5 µM [rising, single point]

Gathered by group, the entries above with an NH in an aromatic ring.
Structure (SMILES) | AC50 [1] | AC50 [2]
CC(=O)c1c(C)[nH]c(C(=O)OCC(=O)Nc2cc(Cl)ccc2[N+](=O)[O-])c1C | – | 5.01 µM [rising, single point]
CCOC(=O)c1c(C)[nH]c(C)c1C(=O)COC(=O)c1cc2ccccc2cc1O | – | 15.8 µM [rising, single point]
CCc1cccc2c(C(=O)COC(=O)/C=C/c3ccc(O)c(OC)c3)c[nH]c12 | – | 35.5 µM [rising, single point]
Cc1ccc2[nH]c(CSc3nnc(NC(=O)COc4ccccc4F)s3)cc(=O)c2c1 | 14.1 µM [falling, partial curve, poor fit] | –
Cc1c(C(=O)OCCOc2ccccc2)[nH]c2c1C(=O)CCC2 | 17.8 µM [rising, partial curve] | 15.8 µM [rising, single point]
COc1cccc(-c2nc(SCc3cc(=O)c4cc(Cl)ccc4[nH]3)n[nH]2)c1 | 0.631 µM [rising, full curve, poor fit] | 35.5 µM [rising, partial curve, poor fit]
